The results in this text go back to publication PMC5085163.

Protein sequences, listed by entry. Tags and fused reporters are not part of them.
UniProt Q04724: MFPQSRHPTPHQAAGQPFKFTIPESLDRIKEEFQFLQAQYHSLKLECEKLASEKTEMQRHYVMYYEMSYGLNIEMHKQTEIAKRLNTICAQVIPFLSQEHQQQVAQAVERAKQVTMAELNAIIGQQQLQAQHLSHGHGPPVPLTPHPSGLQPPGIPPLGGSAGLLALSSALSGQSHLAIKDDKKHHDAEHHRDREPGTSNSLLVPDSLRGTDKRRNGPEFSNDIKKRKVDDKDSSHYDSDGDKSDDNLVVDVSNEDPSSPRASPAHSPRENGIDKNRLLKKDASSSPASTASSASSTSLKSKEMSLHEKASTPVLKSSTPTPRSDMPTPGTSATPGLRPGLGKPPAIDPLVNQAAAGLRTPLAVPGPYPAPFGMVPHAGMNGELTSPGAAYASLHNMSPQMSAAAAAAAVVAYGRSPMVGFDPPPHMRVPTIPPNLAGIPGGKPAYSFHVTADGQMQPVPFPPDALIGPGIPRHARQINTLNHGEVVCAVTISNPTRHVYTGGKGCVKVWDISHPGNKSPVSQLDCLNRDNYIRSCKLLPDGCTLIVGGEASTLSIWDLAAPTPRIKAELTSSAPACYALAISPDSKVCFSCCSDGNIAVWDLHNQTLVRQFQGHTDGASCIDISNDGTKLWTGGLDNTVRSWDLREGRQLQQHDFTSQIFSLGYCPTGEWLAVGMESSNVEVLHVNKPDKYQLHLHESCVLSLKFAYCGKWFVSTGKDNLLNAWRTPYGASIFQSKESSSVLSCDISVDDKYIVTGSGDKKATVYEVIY
UniProt Q15532: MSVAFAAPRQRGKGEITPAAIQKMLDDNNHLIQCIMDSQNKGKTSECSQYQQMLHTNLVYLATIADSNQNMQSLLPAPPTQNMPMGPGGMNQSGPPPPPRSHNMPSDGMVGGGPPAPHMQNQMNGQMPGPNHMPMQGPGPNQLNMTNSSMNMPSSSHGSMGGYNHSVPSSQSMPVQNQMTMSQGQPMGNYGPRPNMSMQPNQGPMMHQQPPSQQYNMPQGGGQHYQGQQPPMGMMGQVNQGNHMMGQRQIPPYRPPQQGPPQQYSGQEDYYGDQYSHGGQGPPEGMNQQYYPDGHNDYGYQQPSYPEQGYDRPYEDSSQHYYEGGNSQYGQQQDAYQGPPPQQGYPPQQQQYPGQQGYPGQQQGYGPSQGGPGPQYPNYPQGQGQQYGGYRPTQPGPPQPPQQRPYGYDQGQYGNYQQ

The target in test [1] is transducin-like enhancer of split 1 (TLE1) (human (endogenous in synovial sarcoma and control cell lines and tumor tissue)) (UniProt Q04724). Kind of test: proximity ligation; Duolink In Situ Red kit on cultured cells fixed with 3% formaldehyde and permeabilized with 0.1% Triton X-100; rabbit anti-SS18 and mouse anti-TLE1 primary antibodies overnight at 4°C; nuclear foci per nucleus; also done after HDAC inhibitors, SXT1596 and siRNA/shRNA against SS18-SSX.

For test [2] the target is unchanged. Kind of test: proximity ligation; brightfield Duolink protocol on 4 μm FFPE sections of tumor tissue and embedded cell line pellets; anti-SS18 and anti-TLE1 overnight.

These are yes or no findings as the source states them, for the method shown. In cells and extracts the contact can be indirect.

Regarding “wild-type SS18 (from UniProt Q15532 1-418)”, the binding entry in test [1] and in test [2] was “no binding” in each case.
